According to the supplement of paper PMC11098740:
Some of the results follow. Many values rest on one well or one pass, so single values are uncertain.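 The assay uses a mixed pool of 41 HAP1 clones in which 61 cancer-associated proteins bear intron-inserted fluorescent tags, and clones are distinguished by image pattern. Results are compared against DMSO-treated control wells, and the BRD4 degrader dBET6 is the positive control.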

By UniProt entry, the sequences of proteins in these tests, tags left out.
UniProt O14980, whole entry: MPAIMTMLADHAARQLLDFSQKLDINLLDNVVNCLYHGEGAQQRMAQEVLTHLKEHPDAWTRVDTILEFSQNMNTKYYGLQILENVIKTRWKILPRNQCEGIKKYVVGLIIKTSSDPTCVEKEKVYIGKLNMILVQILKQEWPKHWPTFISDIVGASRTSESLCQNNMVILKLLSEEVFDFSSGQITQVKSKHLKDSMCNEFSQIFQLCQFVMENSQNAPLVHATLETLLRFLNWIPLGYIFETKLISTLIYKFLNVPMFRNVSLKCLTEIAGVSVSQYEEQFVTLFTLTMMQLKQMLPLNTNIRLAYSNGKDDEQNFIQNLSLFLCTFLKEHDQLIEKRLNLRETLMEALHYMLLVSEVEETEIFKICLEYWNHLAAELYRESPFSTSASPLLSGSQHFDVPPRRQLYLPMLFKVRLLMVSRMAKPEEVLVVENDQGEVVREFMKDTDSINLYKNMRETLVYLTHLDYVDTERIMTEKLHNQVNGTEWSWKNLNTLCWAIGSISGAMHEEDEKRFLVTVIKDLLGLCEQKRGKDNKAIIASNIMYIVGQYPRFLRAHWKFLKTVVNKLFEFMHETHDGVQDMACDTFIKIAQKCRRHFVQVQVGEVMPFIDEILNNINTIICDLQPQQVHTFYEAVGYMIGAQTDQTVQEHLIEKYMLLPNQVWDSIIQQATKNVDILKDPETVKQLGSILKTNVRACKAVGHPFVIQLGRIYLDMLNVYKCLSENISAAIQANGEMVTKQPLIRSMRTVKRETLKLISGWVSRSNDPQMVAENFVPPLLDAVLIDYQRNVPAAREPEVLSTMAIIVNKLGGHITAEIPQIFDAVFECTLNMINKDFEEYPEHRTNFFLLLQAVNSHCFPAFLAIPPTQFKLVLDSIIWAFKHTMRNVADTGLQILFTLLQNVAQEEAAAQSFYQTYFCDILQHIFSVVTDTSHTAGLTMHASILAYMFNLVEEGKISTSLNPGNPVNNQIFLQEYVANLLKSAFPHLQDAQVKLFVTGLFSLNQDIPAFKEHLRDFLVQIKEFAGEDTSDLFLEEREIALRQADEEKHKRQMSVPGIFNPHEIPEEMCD

Target: XPO1 (intron 15 mScarlet tag, HAP1) (UniProt O14980)
Assay: XPO1 fluorescence intensity change vs DMSO (log2 fold change); higher = more XPO1 protein
Settings: 6 h

Row | Compound | XPO1 fluorescence intensity change (log2)
1 | O=C(NCc1ccccc1)c1nnc(CCl)s1 (10 µM) | 0.0274
2 | COc1ccc(/C=N/Nc2ncnc3sc(C)c(C)c23)c(OC)c1OC (10 µM) | 0.00099
3 | COC(=O)Nc1nc2cc(C(=O)c3cccs3)ccc2[nH]1 [nocodazole] (10 µM) | -0.196
4 | O=C(Nc1ccc(N2CCCC2)cn1)c1cccc(Cl)c1 (10 µM) | -0.051
5 | COc1ccc(Nc2ncnc3c2c(C)c(C)n3Cc2ccco2)cc1 (10 µM) | -0.164
6 | Cc1cn2c(CC(=O)Nc3ccc(C(F)(F)F)cc3)csc2n1 (10 µM) | -0.00665
7 | Cc1ccccc1OCCN(C)c1ncnc2cc(F)ccc12 (10 µM) | -0.0551
8 | Cc1sc(NC(=O)CCNC(=O)Cc2ccccc2)nc1-c1ccc(F)cc1 (10 µM) | -0.0901
9 | O=C(Cc1ccc2c(c1)CCC2)NCc1cccs1 (10 µM) | 0.0562
10 | CCOc1ccccc1NS(=O)(=O)c1ccc(OC)cc1 (10 µM) | -0.181
11 | Nc1nc2[nH]cnc2c(=S)[nH]1 [tioguanine] (10 µM) | -0.111
12 | N[C@H]1CC[C@H](N[C@@H]2C[C@H]2c2ccccc2)CC1 (10 µM) | -0.00995
13 | O=C(c1cc(-c2ccncc2)nc2ccccc12)N1CCN(c2ccccc2)CC1 (1 µM) | -0.281
14 | COc1cc(CCl)c([N+](=O)[O-])cc1OC(F)F (10 µM) | 0.211
15 | CCCCn1c(CCl)nc2cc(S(N)(=O)=O)ccc21 (10 µM) | 0.0165
16 | C[C@H](Nc1ncnc2nc[nH]c12)c1cc2cccc(Cl)c2c(=O)n1-c1ccccc1 (10 µM) | 0.166
17 | Cc1cc(F)cc(S(=O)(=O)Nc2ccc3c(c2)C(=O)NCC3)c1 (10 µM) | -0.0158
18 | NNC(=O)c1cc(-c2cccs2)nc2ccccc12 (10 µM) | -0.168
19 | Cc1nn(-c2ccccc2)c(C)c1CNC(=O)c1cc(-c2cccnc2)on1 (10 µM) | 0.0806
20 | CCn1c(-c2ccccc2)cnc1SC(C)C(=O)Nc1cccc(C(C)=O)c1 (stereo not drawn) (10 µM) | -0.108

Looked up by compound from the entries so far, 3 records:
Row | Compound | XPO1 fluorescence intensity change (log2)
9 | O=C(Cc1ccc2c(c1)CCC2)NCc1cccs1 (10 µM) | 0.0562
8 | Cc1sc(NC(=O)CCNC(=O)Cc2ccccc2)nc1-c1ccc(F)cc1 (10 µM) | -0.0901
5 | COc1ccc(Nc2ncnc3c2c(C)c(C)n3Cc2ccco2)cc1 (10 µM) | -0.164

Continuation.

Row | Compound | XPO1 fluorescence intensity change (log2)
21 | N#CC(C#N)=C1C=CC=CN1/C(=C/c1ccc(F)cc1)C(=O)c1ccc(Br)cc1 (1 µM) | 0.206
22 | N#Cc1ccc(N2CCN(Cc3ccc(-c4ccccc4Cl)s3)CC2)nc1 (10 µM) | 0.0278
23 | COC[P+](c1ccccc1)(c1ccccc1)c1ccccc1 (10 µM) | 0.0899
24 | N#CC(C#N)=C1C=CC=CN1/C(=C/c1cccc([N+](=O)[O-])c1)C(=O)c1ccccc1 (10 µM) | 0.0376
25 | CCOc1ccc(S(=O)(=O)Nc2cc(C(=O)OC)ccc2C)cc1 (1 µM) | 0.045
26 | CCc1cc2c(N3CCC(C(=O)Nc4cc(C)on4)CC3)ncnc2s1 (10 µM) | -0.0489
27 | CC(Oc1ccc(Cl)cc1)C(=O)Nc1ccccc1-c1nc2ccccc2[nH]1 (stereo not drawn) (10 µM) | -0.0906
28 | COc1ccc(CNC(C)c2ccc(Cl)c(Cl)c2)cc1O (stereo not drawn) (10 µM) | 0.0891
29 | O=C(NCC(c1cccs1)N1CCOCC1)c1ccsc1 (stereo not drawn) (10 µM) | -0.0213
30 | COC(=O)C1=C(C)N(c2ccccc2OC)C(=S)NC1c1ccc(OC)c(O)c1 (stereo not drawn) (10 µM) | 0.216
31 | Cc1cnc(NC(=O)Nc2cc(Br)c(C)cc2OC[C@@H]2CNCCO2)cn1 (20 µM) | -0.164
32 | CCc1cc2c(NCCc3ccc(OC)c(OC)c3)ncnc2s1 (10 µM) | -0.0596
33 | O=C(Nc1ccc(OC(F)(F)F)cc1)N1CCc2ccccc2C1 (10 µM) | 0.101
34 | Cc1nnc(CN(C)c2nc3c(s2)CC(c2ccccc2)CC3)o1 (stereo not drawn) (10 µM) | 0.074
35 | Cc1cc(C)cc(OCCOC(=O)c2cc(S(N)(=O)=O)ccc2Cl)c1 (10 µM) | 0.0706
36 | Cc1noc(C)c1COc1cccc(C(=O)OCC(=O)c2ccc(F)cc2)c1 (0.1 µM) | 0.0937
37 | CC(=O)OCC(=O)Nc1ccc2c(c1)OCO2 (10 µM) | -0.0725
38 | Cc1ccccc1CN1C(=O)C(O)(CC(=O)c2ccccc2O)c2ccccc21 (stereo not drawn) (10 µM) | -0.232
39 | COc1cc(OC)c2c(-c3ccccc3)cc(SCC(N)=O)nc2c1 (10 µM) | 0.153

Target: BRD4 (intron 10 mScarlet tag, HAP1) (UniProt O60885)
Assay: BRD4 median nuclear fluorescence intensity change vs DMSO (log2 fold change); higher = more BRD4 protein
Settings: 6 h

Row | Compound | BRD4 median nuclear fluorescence intensity change (log2)
40 | O=C(NCc1ccccc1)c1nnc(CCl)s1 (10 µM) | 0.053
41 | COc1ccc(/C=N/Nc2ncnc3sc(C)c(C)c23)c(OC)c1OC (10 µM) | 0.237
42 | COC(=O)Nc1nc2cc(C(=O)c3cccs3)ccc2[nH]1 [nocodazole] (10 µM) | -0.0164
43 | O=C(Nc1ccc(N2CCCC2)cn1)c1cccc(Cl)c1 (10 µM) | -0.0922
44 | COc1ccc(Nc2ncnc3c2c(C)c(C)n3Cc2ccco2)cc1 (10 µM) | -0.0139
45 | Cc1cn2c(CC(=O)Nc3ccc(C(F)(F)F)cc3)csc2n1 (10 µM) | 0.0598
46 | Cc1ccccc1OCCN(C)c1ncnc2cc(F)ccc12 (10 µM) | 0.0309
47 | Cc1sc(NC(=O)CCNC(=O)Cc2ccccc2)nc1-c1ccc(F)cc1 (10 µM) | -0.0286
48 | O=C(Cc1ccc2c(c1)CCC2)NCc1cccs1 (10 µM) | 0.031
49 | CCOc1ccccc1NS(=O)(=O)c1ccc(OC)cc1 (10 µM) | -0.0239
50 | Nc1nc2[nH]cnc2c(=S)[nH]1 [tioguanine] (10 µM) | 0.0352
51 | N[C@H]1CC[C@H](N[C@@H]2C[C@H]2c2ccccc2)CC1 (10 µM) | 0.0828
52 | O=C(c1cc(-c2ccncc2)nc2ccccc12)N1CCN(c2ccccc2)CC1 (1 µM) | 0.0902
53 | COc1cc(CCl)c([N+](=O)[O-])cc1OC(F)F (10 µM) | -0.0219
54 | CCCCn1c(CCl)nc2cc(S(N)(=O)=O)ccc21 (10 µM) | 0.121
55 | C[C@H](Nc1ncnc2nc[nH]c12)c1cc2cccc(Cl)c2c(=O)n1-c1ccccc1 (10 µM) | 0.306
56 | Cc1cc(F)cc(S(=O)(=O)Nc2ccc3c(c2)C(=O)NCC3)c1 (10 µM) | 0.066
57 | NNC(=O)c1cc(-c2cccs2)nc2ccccc12 (10 µM) | 0.014
58 | Cc1nn(-c2ccccc2)c(C)c1CNC(=O)c1cc(-c2cccnc2)on1 (10 µM) | 0.0212
59 | CCn1c(-c2ccccc2)cnc1SC(C)C(=O)Nc1cccc(C(C)=O)c1 (stereo not drawn) (10 µM) | 0.0581

A draw from above in order of length of the SMILES, low to high.
Row | Compound | BRD4 median nuclear fluorescence intensity change (log2)
44 | COc1ccc(Nc2ncnc3c2c(C)c(C)n3Cc2ccco2)cc1 (10 µM) | -0.0139
51 | N[C@H]1CC[C@H](N[C@@H]2C[C@H]2c2ccccc2)CC1 (10 µM) | 0.0828
52 | O=C(c1cc(-c2ccncc2)nc2ccccc12)N1CCN(c2ccccc2)CC1 (1 µM) | 0.0902

Following part:

Row | Compound | BRD4 median nuclear fluorescence intensity change (log2)
60 | N#CC(C#N)=C1C=CC=CN1/C(=C/c1ccc(F)cc1)C(=O)c1ccc(Br)cc1 (1 µM) | -0.00345
61 | N#Cc1ccc(N2CCN(Cc3ccc(-c4ccccc4Cl)s3)CC2)nc1 (10 µM) | 0.0697
62 | COC[P+](c1ccccc1)(c1ccccc1)c1ccccc1 (10 µM) | 0.147
63 | N#CC(C#N)=C1C=CC=CN1/C(=C/c1cccc([N+](=O)[O-])c1)C(=O)c1ccccc1 (10 µM) | 0.0305
64 | CCOc1ccc(S(=O)(=O)Nc2cc(C(=O)OC)ccc2C)cc1 (1 µM) | 0.0151
65 | CCc1cc2c(N3CCC(C(=O)Nc4cc(C)on4)CC3)ncnc2s1 (10 µM) | 0.0351
66 | CC(Oc1ccc(Cl)cc1)C(=O)Nc1ccccc1-c1nc2ccccc2[nH]1 (stereo not drawn) (10 µM) | 0.0726
67 | COc1ccc(CNC(C)c2ccc(Cl)c(Cl)c2)cc1O (stereo not drawn) (10 µM) | 0.117
68 | O=C(NCC(c1cccs1)N1CCOCC1)c1ccsc1 (stereo not drawn) (10 µM) | -0.0141
69 | COC(=O)C1=C(C)N(c2ccccc2OC)C(=S)NC1c1ccc(OC)c(O)c1 (stereo not drawn) (10 µM) | 0.091
70 | Cc1cnc(NC(=O)Nc2cc(Br)c(C)cc2OC[C@@H]2CNCCO2)cn1 (20 µM) | -0.139
71 | CCc1cc2c(NCCc3ccc(OC)c(OC)c3)ncnc2s1 (10 µM) | -0.0351
72 | O=C(Nc1ccc(OC(F)(F)F)cc1)N1CCc2ccccc2C1 (10 µM) | 0.0406
73 | Cc1nnc(CN(C)c2nc3c(s2)CC(c2ccccc2)CC3)o1 (stereo not drawn) (10 µM) | 0.0602
74 | Cc1cc(C)cc(OCCOC(=O)c2cc(S(N)(=O)=O)ccc2Cl)c1 (10 µM) | 0.0505
75 | Cc1noc(C)c1COc1cccc(C(=O)OCC(=O)c2ccc(F)cc2)c1 (0.1 µM) | 0.155
76 | CC(=O)OCC(=O)Nc1ccc2c(c1)OCO2 (10 µM) | 0.0147
77 | Cc1ccccc1CN1C(=O)C(O)(CC(=O)c2ccccc2O)c2ccccc21 (stereo not drawn) (10 µM) | 0.0661
78 | COc1cc(OC)c2c(-c3ccccc3)cc(SCC(N)=O)nc2c1 (10 µM) | 0.0744
